Experimental data published in PMC11984319.
No constants are given. Whether binding was seen depends on the method and setting. Binding seen in cells or lysates may run through a third protein. Some results given as binding are weak or reduced against the parent protein; the word gives no strength. Sequences can lack the tags named with a protein.

Target: T1, HA-IRX5 (UniProt P78411)
T1 sequence: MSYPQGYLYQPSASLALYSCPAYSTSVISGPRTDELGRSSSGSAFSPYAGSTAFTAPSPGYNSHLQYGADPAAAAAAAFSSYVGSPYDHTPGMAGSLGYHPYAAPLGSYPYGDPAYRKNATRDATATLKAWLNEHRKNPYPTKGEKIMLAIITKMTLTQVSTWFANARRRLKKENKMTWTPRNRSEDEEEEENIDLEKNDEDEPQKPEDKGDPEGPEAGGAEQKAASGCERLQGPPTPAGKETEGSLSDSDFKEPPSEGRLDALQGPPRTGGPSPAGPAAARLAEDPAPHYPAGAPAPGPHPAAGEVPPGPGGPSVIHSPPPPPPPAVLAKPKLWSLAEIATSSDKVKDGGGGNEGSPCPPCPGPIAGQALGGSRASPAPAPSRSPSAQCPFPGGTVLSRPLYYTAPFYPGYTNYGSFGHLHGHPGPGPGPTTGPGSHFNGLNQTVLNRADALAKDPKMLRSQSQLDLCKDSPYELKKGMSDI
Experiment: co-IP; HEK-293T cells transiently cotransfected with HA-IRX5 and FLAG-HMGN4; extracts incubated with anti-IRX5 or IgG and Protein A/G agarose beads overnight at 4°C; immunoblot

- binding: binds
Substance: FLAG-HMGN4 (from UniProt O00479 1-90)
